Laboratory results reported in the supplement of paper PMC4749390.
Structures can show the parent of a compound that is named as a salt. This is one part of the list. Repeats in this data set agree poorly, so a single value says little.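 JEG3 cells stably carry tetracycline-induced wild-type human LRH-1, a heavily sumoylated nuclear receptor. APOC3 and MUC1 are SUMO-sensitive transcripts, raised by SUMO-less LRH-1 or UBC9 knockdown, measured by RT-qPCR against TBP and DMSO controls. A robust Z-score above +2 or below -2 marked a primary hit before toxicity and TBP filtering.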

Each molecule was assayed on JEG3 expressing hLRH-1 (assay: MUC1 transcript change (ddCt vs TBP and DMSO), Z-score over library; higher = higher MUC1 expression). Conditions: 10 µM; time (hr): 24.

SMILES	MUC1 transcript change (Z-score)
CC(=O)Nc1nnc(S(N)(=O)=O)s1 [Acetazolamide]	-0.517
C/C=C/c1ccc(OC)cc1 [anethole]	0.292
CO/N=C1\C[C@]2(C[C@@H]3C[C@@H](C/C=C(\C)C[C@@H](C)/C=C/C=C4\CO[C@@H]5[C@H](O)C(C)=C[C@@H](C(=O)O3)[C@]45O)O2)O[C@H](/C(C)=C/C(C)C)[C@H]1C [moxidectin]	-0.0382
CCOC(=O)NNc1nncc2ccccc12 [todralazine hydrochloride]	-0.054
CCCC(=O)Nc1ccc(OCC(O)CNC(C)C)c(C(C)=O)c1 (stereo not drawn) [acebutolol hydrochloride]	-1.2
CC(C)(C)NCC(O)c1cc(O)cc(O)c1 (stereo not drawn) [terbutaline hemisulfate]	0.575
CC(=O)[C@H]1CCC2C3CCC4=CC(=O)CC[C@]4(C)C3CC[C@@]21C (stereo partly drawn) [progesterone]	0.0655
CC[N+](CC)(CC)CCOc1cccc(OCC[N+](CC)(CC)CC)c1OCC[N+](CC)(CC)CC [Gallamine triethiodide]	-0.197
CC(Oc1c(Cl)cccc1Cl)C1=NCCN1 (stereo not drawn) [lofexidine  hydrochloride]	-0.191
C#CCN(C)CCCOc1ccc(Cl)cc1Cl [Clorgyline hydrochloride]	-0.65
OCc1ccccn1 [piconol]	0.587
CN1CCC(=C2c3ccccc3C=Cc3ccccc32)CC1 [Cyproheptadine hydrochloride]	-0.0453
CCOC(=O)OC(C)OC1=C(C(=O)Nc2ccccn2)N(C)S(=O)(=O)c2ccccc21 (stereo not drawn) [ampiroxicam]	0.00181
COc1ccc(C(=O)c2ccccc2O)c(O)c1 [dioxybenzone]	-0.873
CC[C@H]1OC(=O)[C@H](C)[C@@H](O[C@H]2C[C@@](C)(OC)[C@@H](O)[C@H](C)O2)[C@H](C)[C@@H](O[C@@H]2O[C@H](C)C[C@H](N(C)C)[C@H]2O)[C@](C)(OC)C[C@@H](C)C(=O)[C@H](C)[C@@H](O)[C@]1(C)O [clarithromycin]	0.673
C=NC(C(=O)NC1C(=O)N2C1SC(C)(C)C2C(=O)O)c1ccccc1 (stereo not drawn) [metampicillin sodium]	-0.555
COc1cc(CNC(=O)CCCC/C=C/C(C)C)ccc1O [e-capsaicin]	-0.523
COCCc1ccc(OCC(O)CNC(C)C)cc1 (stereo not drawn) [metoprolol tartrate]	0.0235
CC1CCCC(C)N1 (stereo not drawn) [nanofin]	0.387
CC(=O)Nc1cccc(O)c1 [metacetamol]	0.595
CC(=O)OCC(CCn1cnc2cnc(N)nc21)COC(C)=O [famciclovir]	0.223
O=C(O)c1cc(N=Nc2ccc(O)c(C(=O)O)c2)ccc1O [olsalazine sodium]	0.775
CCCCCOC(=O)Nc1nc(=O)n([C@@H]2O[C@H](C)[C@@H](O)[C@H]2O)cc1F [capecitabine]	-0.321
CC12CCC3c4ccc(O)cc4CCC3C1C[C@H](O)[C@@H]2O (stereo partly drawn) [epiestriol]	0.446
O=C1[C@H](CC[C@H](O)c2ccc(F)cc2)[C@@H](c2ccc(O)cc2)N1c1ccc(F)cc1 [ezetimibe]	0.768
O=C1/C(=C/c2cccs2)CCC/C1=C\c1cccs1 [tenylidone]	-0.39
C/C=C\C1=C(C(=O)O)N2C(=O)C(NC(=O)C(N)c3ccc(O)cc3)C2SC1 (stereo not drawn) [cefprozil]	-0.607

SMILES	MUC1 transcript change (Z-score)
CC(O)(P(=O)(O)O)P(=O)(O)O [etidronate disodium]	0.256
Clc1ccc2c(c1)CCc1cccnc1C2=C1CCNCC1 [desloratidine]	0.426
Cc1cn([C@H]2C[C@H](N=[N+]=[N-])[C@@H](CO)O2)c(=O)[nH]c1=O [zidovudine [azt]]	-1.62
O=C(O)/C=C/C(=O)O [fumaric acid]	0.709
CO[C@@]1(NC(=O)CSCC#N)C(=O)N2C(C(=O)O)=C(CSc3nnnn3C)CSC21 (stereo partly drawn) [cefmetazole sodium]	0.722
C#CCN(C)Cc1ccccc1 [Pargyline hydrochloride]	0.729
CCOC(=O)c1ncn2c1CN(C)C(=O)c1cc(F)ccc1-2 [flumazenil]	0.516
NC(=O)NC1NC(=O)NC1=O (stereo not drawn) [allantoin]	-0.351
O=C1CCC(N2C(=O)c3ccccc3C2=O)C(=O)N1 (stereo not drawn) [thalidomide]	-0.331
CNC(=O)c1c(I)c(NC(C)=O)c(I)c(C(=O)O)c1I [iothalamic acid]	0.677
CC(=O)Oc1cc2c(s1)CCN([C@H](C(=O)C1CC1)c1ccccc1F)C2 [prasugrel]	-2.05
CCN(CC)CCNC(=O)COc1ccc(OC)cc1 [mefexamide]	-1.21
CCOc1ccc(NC(=O)CC(C)O)cc1 (stereo not drawn) [bucetin]	-0.042
CC1(C)S[C@@H]2[C@H](NC(=O)Cc3ccccc3)C(=O)N2[C@H]1C(=O)O [penicillin g potassium]	-0.584
Cc1cccc(Nc2ccccc2C(=O)O)c1C [mefenamic acid]	-0.822
CC(=O)OCC1=C(C(=O)O)N2C(=O)[C@@H](NC(=O)Cc3cccs3)[C@H]2SC1 [cephalothin sodium]	-1.37
CC(=O)c1ccc2c(c1)Sc1ccccc1N2CCCN1CCN(CCO)CC1 [acetophenazine maleate]	-0.436
CC(N)C(=O)OC(C)(C)Cc1ccc(Cl)cc1 (stereo not drawn) [Alaproclate hydrochloride]	-0.202
CCCc1cc(C(N)=S)ccn1 [protionamide]	0.112
CC(C)(C)C(=O)C(Oc1ccc(Cl)cc1)n1ccnc1 (stereo not drawn) [climbazole]	0.179
CN1C(=O)CC(C)(c2ccccc2)C1=O (stereo not drawn) [methsuximide]	-0.0993
Cc1cc(O)nc(S)n1 [methylthiouracil]	0.269
CC(C)NCC(O)c1cc(O)cc(O)c1 (stereo not drawn) [metaproterenol]	0.193
Cc1nc2ccccc2n1Cc1ccc(Cl)cc1 [chlormidazole]	-1.18
CC(C)(O/N=C(\C(=O)N[C@@H]1C(=O)N2C(C(=O)O)=C(C[n+]3ccccc3)CS[C@H]12)c1csc(N)n1)C(=O)O [ceftazidime]	0.888
CCOC(=O)[C@H](CCc1ccccc1)N[C@@H](C)C(=O)N1[C@H](C(=O)O)C[C@@H]2CCC[C@@H]21 [ramipril]	0.927

Reformatted in CSV form: three of the compounds above
SMILES,MUC1 transcript change (Z-score)
CN1C(=O)CC(C)(c2ccccc2)C1=O (stereo not drawn) [methsuximide],-0.0993
Cc1cc(O)nc(S)n1 [methylthiouracil],0.269
CC(C)NCC(O)c1cc(O)cc(O)c1 (stereo not drawn) [metaproterenol],0.193
